Patent US20130295060A1, “METHOD FOR CULTURING CARDIAC PROGENITOR CELLS AND USE OF CARDIAC PROGENITOR CELLS” (Ewha University-Industry Collaboration Foundation, priority 2012, published 2013)
For at least one compound, name, drawing or mass did not settle the structure. Some entries share one result that the patent states for a list of compounds.

How the values were obtained:
cardiac progenitor cells = assay: Effect of concentration of antifibrinolytic agent on cardiac progenitor cell-induced degradation of hydrogel (toluidine blue); assay type: cell-based; conditions: 1 day culture
Description: 100 μl of the fibrinogen solution containing cardiac progenitor cells was added to 100 μl of each of the respective thrombin solutions containing aminomethylbenzoic acid in concentrations of […], 0.5, and 1.0 mg/ml. After complete formation of hydrogel, cardiac progenitor cells were cultured for 1 day, fixed with formalin, and stained with toluidine blue. An examination was made of the states of the fibrin hydrogels and cells.

myocardial fragments = assay: Organ culture of myocardial fragments in fibrin hydrogel with antifibrinolytic agent (phase-contrast microscopy); assay type: cell-based, human; conditions: 100 μg/ml solution added to fibrinogen solution, organ culture 3 days
Description: Four fibrinogen solutions with respective concentrations of 2.5, 5.0, 10.0, and 20.0 mg/ml were prepared, and each was added with a 100 μg/ml aminomethylbenzoic acid or tranexamic acid solution, as in Example 5. From the heart of a brain-dead patient, the myocardium was taken after the removal of both the epicardium and the endocardium. […] The myocardial fragments were added at a density of 10 per 0.5 ml of a 1 unit/ml thrombin solution. Each of the four fibrinogen solutions was mixed at a volume ratio of 1:1 with the thrombin solution containing the cardiac fragments. The resulting mixture was aliquoted in an amount of 1 ml per well into 6-multiwell tissue culture plates before performing a polymerization and cross-linking reaction to form a hydrogel.

[1] = tested on: cardiac progenitor cell-induced fibrinolysis; assay: Inhibition of antifibrinolytic agents against cardiac progenitor cell-induced fibrinolysis (fibrin hydrogel degradation, Alexa Fluor 488-fibrinogen release); assay type: cell-based; conditions: for degradation of fibrin hydrogel by cardiac progenitor cells: hydrogel containing the antifibrinolytic agent, cardiac progenitor cells embedded, incubated 1 day
Description: The cardiac progenitor cells were mixed at a density of 2×10^5 cells per 100 μl of each of the four fibrinogen solutions with 100 μl of the thrombin solution, followed by a cross-linking reaction for 2 hrs. Following the formation of hydrogel, 300 μl of a cell culture was added to the hydrogel, and incubated for 1 day. A hydrogel void of cardiac progenitor cells was prepared for use as a control.
Antifibrinolytic agents were purchased from Sigma.

Row | Compound | state of fibrin hydrogel against cardiac progenitor cell-induced fibrinolysis (cardiac progenitor cells; 0.1 or 0.2 mg/ml) | state of fibrin hydrogel against cardiac progenitor cell-induced fibrinolysis (cardiac progenitor cells; 0.5 or 1.0 mg/ml) | hydrogel as cell adhesion substrate during organ culture of myocardial fragments (myocardial fragments) | antifibrinolytic activity compared with aminocaproid acid or aprotinin [1] | degradation of fibrin hydrogel by cardiac progenitor cells [1]
1 | NCc1ccc(C(=O)O)cc1 [aminomethylbenzoic acid] | resistant to the cardiac progenitor cell-induced fibrinolysis | strongly suppressing the cardiac progenitor cell-induced fibrinolysis | stable, three-dimensional cell adhesion substrates | three times as high | less than 30%
2 | NC[C@H]1CC[C@H](C(=O)O)CC1 [tranexamic acid] |  |  |  |  | less than 30%
